These results are taken from ChEMBL document CHEMBL3098050, “Stereoselective total synthesis of a novel regiomer of herbarumin I and its cytotoxic and antimicrobial activities” (Bioorg Med Chem Lett, 2014).

Common to all, as to type: functional, cell-based
One assay deals with A549. Briefly: Cytotoxicity against human A549 cells by MTT assay. The method in brief:
(§1)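 MTT read-out (Mosmann method); absorbance dose–response curves plotted and IC50 calculated from them; each cell line's value is the mean of two independent experiments; doxorubicin as positive control.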
Background: Formazan colour is commonly taken as a measure of viable cells.

For a further assay, the system named is HepG2. Nature of the assay: Cytotoxicity against human HepG2 cells by MTT assay. The method in brief: as §1
The subject of the next assay is MDA-MB-231. Briefly: Cytotoxicity against human MDA-MB-231 cells by MTT assay. Summed up: as §1

With `COc1cccc2c1C(=O)c1c(O)c3c(c(O)c1C2=O)C[C@@](O)(C(=O)CO)C[C@@H]3O[C@H]1C[C@H](N)[C@H](O)[C@H](C)O1` [DOXORUBICIN], the IC50 in the assay on A549 turned out to be 700 nM; with HepG2, 600 nM; in the assay on MDA-MB-231, 600 nM.

Broadly, the IC50 is the concentration that gives 50% inhibition. The low end stands for greater potency, the high end for weaker potency.
